This note sets out measurements from PMC3008709.

No constants are given. Whether binding was seen depends on the method and setting. In cells and extracts the contact can be indirect. Binding calls can cover weak binding; strength is not graded here. Sequences can lack the tags named with a protein.

Test [1] addresses T1, full-length human IKKβ (Inhibitor of NFκB Kinase β subunit), non-epitope-tagged (human) (UniProt O14920).
T1 sequence: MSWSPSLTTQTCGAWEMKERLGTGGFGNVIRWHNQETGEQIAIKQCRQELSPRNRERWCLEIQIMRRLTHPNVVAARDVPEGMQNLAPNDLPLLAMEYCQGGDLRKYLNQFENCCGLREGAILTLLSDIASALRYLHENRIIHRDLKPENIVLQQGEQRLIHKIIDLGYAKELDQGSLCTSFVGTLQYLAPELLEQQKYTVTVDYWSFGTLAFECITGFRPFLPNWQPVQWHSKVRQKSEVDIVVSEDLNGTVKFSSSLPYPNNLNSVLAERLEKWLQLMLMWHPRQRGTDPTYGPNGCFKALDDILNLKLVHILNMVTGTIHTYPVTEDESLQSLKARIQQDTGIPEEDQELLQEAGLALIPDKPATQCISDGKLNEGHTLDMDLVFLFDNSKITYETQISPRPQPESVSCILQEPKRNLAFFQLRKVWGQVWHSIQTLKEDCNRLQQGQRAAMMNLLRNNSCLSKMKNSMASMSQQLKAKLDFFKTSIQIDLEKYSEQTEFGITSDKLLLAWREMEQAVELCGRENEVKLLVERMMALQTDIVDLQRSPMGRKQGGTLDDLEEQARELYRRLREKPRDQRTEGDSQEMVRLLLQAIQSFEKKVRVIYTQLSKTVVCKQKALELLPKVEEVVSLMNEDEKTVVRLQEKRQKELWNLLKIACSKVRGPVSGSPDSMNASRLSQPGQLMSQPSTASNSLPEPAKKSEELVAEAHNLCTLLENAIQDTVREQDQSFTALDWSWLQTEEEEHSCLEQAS
Kind of test: co-IP; HEK293 cells co-transfected; lysed in 1% NP-40 lysis buffer; immunoprecipitated with IKKβ (H-4) antibody, immunoblot with FGFR4 (C-16) antibody.

Test [2] has as its target full-length constitutively active FGFR4-K645E. Kind of test: co-IP; HEK293 cells co-transfected; lysed in 1% NP-40 lysis buffer; immunoprecipitated with FGFR4 (C-16) antibody, immunoblot with IKKβ (H-4) antibody.
Test [3] deals with full-length kinase-dead FGFR4 (FGFR4-KD, K504M). Described as above.

On to “full-length kinase-dead FGFR4 (FGFR4-KD, K504M) (receptor)”, for which the binding result in test [1] is listed as “binds”.
For “full-length constitutively active FGFR4-K645E (receptor)”, the binding result in test [1] is given as “binds”.

B1: full-length human IKKβ (Inhibitor of NFκB Kinase β subunit), non-epitope-tagged (enzyme, UniProt O14920-1 1-756)
chain: T1 sequence
B1: the binding result in test [2] and in test [3] was “binds” each time.
